Measurements as given in patent publication US20220340682A1 (Sanofi, published 2022).
These are yes or no findings as the source states them, for the method shown.

B1: antibody MAb2 (antibody, mouse IgG1, V domains shown)
VH: EVQLQESGGVLVKPGGSLKLSCAASGFVFSSYDMSWVRQTPEKRLEWVAYISSGGGITYFPDTVQGRFTVSRDNAKNTLYLQMNSLKSEDTAIYYCAAHYFGSSGPFAYWGQGTLVTVSA
VL: DIQMTQSPASLSASVGETVTITCRASENIFSYLAWYQQKQGKSPQLLVYNTKTLAEGVPSRFSGSGSGTQFSLKINSLQPEDFGSYYCQHHYGTPFTFGSGTKLEIK
notes: Murine IgG1, kappa; Rows are tied to the label as printed
B2: antibody MAb5 (antibody, IgG1, V domains shown)
VH: ELQLVESGGVLVKPGGSLKLSCAASGFAFSSYDMSWVRQTPEKRLEWVTYINSGGGITYYPDTVKGRFTISRDNARNTLYLQMSSLKSEDTAIYYCTAHYFGSSGPFAYWGQGTLVTVSA
VL: DIQMTQSPASLSASVGETVTITCRASENIYSYLAWYQQKQGKSPQLLVYNAKTLTEGVPSRFSGSGSGTQFSLKINSLQPEDFGSYYCQHHYGTPFTFGSGTKLEIK
notes: Murine monoclonal from hybridoma, IgG1, kappa
B3: antibody MAb4 (antibody, IgG1, V domains shown)
VH: EVQLVESGGGLVKPGGSLKLSCAASGFTFSSYDMSWVRQTPEKRLEWVAFISSYGGRTYYADTVKGRFTISRDNAKNTLYLQMSSLKSEDTAMFYCAAHYFGTSGPFAYWGQGTLVTVSA
VL: DIQMTQSPASLSASVGETVTITCRASENIYSYFAWYQQKQGKSPQLLVYNAKILAEGVPSRFSGSGSGTQFSLKINSLQPEDFGTYYCQHHYGIPFTFGSGTKLELK
notes: as for B2
B4: antibody MAb1 (antibody, IgG1, V domains shown)
VH: EVMLVESGGGLVKPGGSLKLSCAASGFTFSSYAMSWVRQTPEKRLEWVATISSGGSYIYYLDSVKGRFTISRDNAKNTLYLQMSSLRSEDTAMYYCARPAYYGNPAMDYWGQGTSVTVSS
VL: DILMTQSQKFMSTSVGDRVSVTCKASQNVGTNVAWYQQKPGQSPKPLIYSASYRYSGVPDRFTGSGSGTDFTLTISNVQSEDLAEYFCQQYNSYPLYTFGGGTKLEIK
B5: antibody MAb3 (antibody, IgG1, V domains shown)
VH: EVKLVESGGGLVKPGGSLTLPCAASGFTFSRYAMSWVRQTPEKRLEWVASISSGGDTYYPDSVKGRFTVSRDNARNILFLQMSSLRSEDTGMYYCARVNYYDSSFLDWWGQGTTLTVSS
VL: DIVMTQSQRFMSTLEGDRVSVTCKASQNVGTNVAWYQQKPGQSPKALIYSASYRYSGVPDRFTGSGSGTDFTLTISNVQSEDLAEYFCQQYNNYPLYTFGGGTKLEIK
notes: as for B2

molecular target: cCEACAM5_A1-B1_143-320 (Macaca fascicularis); test: ELISA on coated recombinant CEACAM5 protein or domain, anti-mouse IgG-HRP, OD 450 nm

binding, no binding:
B1, B2, B3, B4, B5
